{
  "source": "the supplement of paper PMC8728848",
  "binders": {"B1": {"name": "FliC (Clostridium difficile) (protein)", "chain": "MRVNTNVSALIANNQMGRNVNGQSKSMEKLSSGVRIKRAADDAAGLAISEKMRAQIKGLDQAGRNVQDGISVVQTAEGSLEETGNILQRMRTLSLQSANEINNTEEREKIADELTQLKDEIERISSSTEFNGKKLLDGTSSTIRLQVGASYGTNVSGTSNNNNEIKIQLVNTASIMASAGITTASIGSMKAGGTTGTDAAKTMVSSLDAALKSLNSSRAKLGAQQNRLESTQNNLNNTLENVTAAESRIRDTDVASEMVNLSKMNILVQASQSMLAQANQQPQGVLQLLG"}},
  "experiment_in_all_cases": "glycan array binding signal (z-score within array); higher = stronger binding",
  "conditions_in_all_cases": "glycan notation: IUPAC condensed, linker removed",
  "key": {"[1]": {"biological_target": "Gal(b1-4)GlcNAc(b1-6)[Gal(b1-3)]GalNAc", "in_short": "(§1)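 Negative Z-scores can be read as non-binding. The Z-score is calculated within each array and then averaged across arrays of one protein sequence at different concentrations or buffers and across linkers. Arrays, 3228 in all, were curated from the Consortium for Functional Glycomics database and kept only where the protein sequence was available.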"}, "[2]": {"biological_target": "Gal(b1-4)GlcNAc(b1-6)[Gal(b1-4)GlcNAc(b1-3)]GalNAc", "in_short": "as §1"}, "Gal(b1-4)GlcNAc6P": {"biological_target": "Gal(b1-4)GlcNAc6P", "in_short": "as §1"}, "Gal(b1-6)Gal": {"biological_target": "Gal(b1-6)Gal", "in_short": "as §1"}, "Gal3S(b1-3)GalNAc": {"biological_target": "Gal3S(b1-3)GalNAc", "in_short": "as §1"}, "Gal3S(b1-3)GlcNAc": {"biological_target": "Gal3S(b1-3)GlcNAc", "in_short": "as §1"}, "[3]": {"biological_target": "Gal3S(b1-3)[Fuc(a1-4)]GlcNAc", "in_short": "as §1"}, "Gal3S(b1-4)Glc": {"biological_target": "Gal3S(b1-4)Glc", "in_short": "as §1"}, "Gal3S(b1-4)Glc6S": {"biological_target": "Gal3S(b1-4)Glc6S", "in_short": "as §1"}, "Gal3S(b1-4)GlcNAc": {"biological_target": "Gal3S(b1-4)GlcNAc", "in_short": "as §1"}, "[4]": {"biological_target": "Gal3S(b1-4)[Fuc(a1-3)]Glc6S", "in_short": "as §1"}, "[5]": {"biological_target": "Gal3S(b1-4)[Fuc(a1-3)]GlcNAc", "in_short": "as §1"}, "[6]": {"biological_target": "Gal3S(b1-4)[Fuc(a1-3)]GlcNAc6S", "in_short": "as §1"}, "Gal3S4S(b1-4)GlcNAc": {"biological_target": "Gal3S4S(b1-4)GlcNAc", "in_short": "as §1"}, "Gal3S6S(b1-4)GlcNAc": {"biological_target": "Gal3S6S(b1-4)GlcNAc", "in_short": "as §1"}, "Gal3S6S(b1-4)GlcNAc6S": {"biological_target": "Gal3S6S(b1-4)GlcNAc6S", "in_short": "as §1"}, "Gal4S(b1-4)GlcNAc": {"biological_target": "Gal4S(b1-4)GlcNAc", "in_short": "as §1"}, "Gal4S6S(b1-4)GlcNAc": {"biological_target": "Gal4S6S(b1-4)GlcNAc", "in_short": "as §1"}, "Gal6P(b1-4)GlcNAc": {"biological_target": "Gal6P(b1-4)GlcNAc", "in_short": "as §1"}, "Gal6S(b1-3)GlcNAc": {"biological_target": "Gal6S(b1-3)GlcNAc", "in_short": "as §1"}, "Gal6S(b1-3)GlcNAc6S": {"biological_target": "Gal6S(b1-3)GlcNAc6S", "in_short": "as §1"}, "Gal6S(b1-4)Glc": {"biological_target": "Gal6S(b1-4)Glc", "in_short": "as §1"}, "Gal6S(b1-4)Glc6S": {"biological_target": "Gal6S(b1-4)Glc6S", "in_short": "as §1"}, "Gal6S(b1-4)GlcNAc": {"biological_target": "Gal6S(b1-4)GlcNAc", "in_short": "as §1"}, "Gal6S(b1-4)GlcNAc6S": {"biological_target": "Gal6S(b1-4)GlcNAc6S", "in_short": "as §1"}, "GalNAc(a1-3)Gal": {"biological_target": "GalNAc(a1-3)Gal", "in_short": "as §1"}, "GalNAc(a1-3)GalNAc": {"biological_target": "GalNAc(a1-3)GalNAc", "in_short": "as §1"}, "[7]": {"biological_target": "GalNAc(a1-3)GalNAc(b1-3)Gal(a1-4)Gal(b1-4)Glc", "in_short": "as §1"}, "[8]": {"biological_target": "GalNAc(a1-3)GalNAc(b1-3)Gal(a1-4)Gal(b1-4)GlcNAc", "in_short": "as §1"}, "GalNAc(b1-3)Gal": {"biological_target": "GalNAc(b1-3)Gal", "in_short": "as §1"}, "[9]": {"biological_target": "GalNAc(b1-3)Gal(a1-4)Gal(b1-4)GlcNAc", "in_short": "as §1"}, "[10]": {"biological_target": "GalNAc(b1-3)Gal(a1-4)Gal(b1-4)GlcNAc(b1-3)Gal(b1-4)Glc", "in_short": "as §1"}, "[11]": {"biological_target": "GalNAc(b1-3)Gal(a1-6)Gal(b1-4)Glc", "in_short": "as §1"}, "GalNAc(b1-3)GalNAc": {"biological_target": "GalNAc(b1-3)GalNAc", "in_short": "as §1"}, "GalNAc(b1-3)GlcNAc": {"biological_target": "GalNAc(b1-3)GlcNAc", "in_short": "as §1"}, "GalNAc(b1-4)Gal(b1-4)Glc": {"biological_target": "GalNAc(b1-4)Gal(b1-4)Glc", "in_short": "as §1"}, "GalNAc(b1-4)GlcNAc": {"biological_target": "GalNAc(b1-4)GlcNAc", "in_short": "as §1"}, "[12]": {"biological_target": "GalNAc(b1-4)GlcNAc(b1-2)Man", "in_short": "as §1"}},
  "note": "Some of the results follow.",
  "data": [
    {"binder": "B1", "values": [
      {"measurement": "glycan array binding signal (z-score)", "setting": "[1]", "value": -0.23},
      {"measurement": "glycan array binding signal (z-score)", "setting": "[2]", "value": -0.331},
      {"measurement": "glycan array binding signal (z-score)", "setting": "Gal(b1-4)GlcNAc6P", "value": -0.843},
      {"measurement": "glycan array binding signal (z-score)", "setting": "Gal(b1-6)Gal", "value": 0.447},
      {"measurement": "glycan array binding signal (z-score)", "setting": "Gal3S(b1-3)GalNAc", "value": 0.317},
      {"measurement": "glycan array binding signal (z-score)", "setting": "Gal3S(b1-3)GlcNAc", "value": -0.617},
      {"measurement": "glycan array binding signal (z-score)", "setting": "[3]", "value": -0.856},
      {"measurement": "glycan array binding signal (z-score)", "setting": "Gal3S(b1-4)Glc", "value": -0.03},
      {"measurement": "glycan array binding signal (z-score)", "setting": "Gal3S(b1-4)Glc6S", "value": 0.135},
      {"measurement": "glycan array binding signal (z-score)", "setting": "Gal3S(b1-4)GlcNAc", "value": -0.415},
      {"measurement": "glycan array binding signal (z-score)", "setting": "[4]", "value": 0.415},
      {"measurement": "glycan array binding signal (z-score)", "setting": "[5]", "value": -0.56},
      {"measurement": "glycan array binding signal (z-score)", "setting": "[6]", "value": -0.377},
      {"measurement": "glycan array binding signal (z-score)", "setting": "Gal3S4S(b1-4)GlcNAc", "value": -0.58},
      {"measurement": "glycan array binding signal (z-score)", "setting": "Gal3S6S(b1-4)GlcNAc", "value": -0.233},
      {"measurement": "glycan array binding signal (z-score)", "setting": "Gal3S6S(b1-4)GlcNAc6S", "value": -0.314},
      {"measurement": "glycan array binding signal (z-score)", "setting": "Gal4S(b1-4)GlcNAc", "value": -0.21},
      {"measurement": "glycan array binding signal (z-score)", "setting": "Gal4S6S(b1-4)GlcNAc", "value": -0.316},
      {"measurement": "glycan array binding signal (z-score)", "setting": "Gal6P(b1-4)GlcNAc", "value": 0.321},
      {"measurement": "glycan array binding signal (z-score)", "setting": "Gal6S(b1-3)GlcNAc", "value": -0.616},
      {"measurement": "glycan array binding signal (z-score)", "setting": "Gal6S(b1-3)GlcNAc6S", "value": -0.654},
      {"measurement": "glycan array binding signal (z-score)", "setting": "Gal6S(b1-4)Glc", "value": -0.452},
      {"measurement": "glycan array binding signal (z-score)", "setting": "Gal6S(b1-4)Glc6S", "value": -0.24},
      {"measurement": "glycan array binding signal (z-score)", "setting": "Gal6S(b1-4)GlcNAc", "value": 0.466},
      {"measurement": "glycan array binding signal (z-score)", "setting": "Gal6S(b1-4)GlcNAc6S", "value": -0.398},
      {"measurement": "glycan array binding signal (z-score)", "setting": "GalNAc(a1-3)Gal", "value": -0.317},
      {"measurement": "glycan array binding signal (z-score)", "setting": "GalNAc(a1-3)GalNAc", "value": -0.286},
      {"measurement": "glycan array binding signal (z-score)", "setting": "[7]", "value": -0.844},
      {"measurement": "glycan array binding signal (z-score)", "setting": "[8]", "value": -0.681},
      {"measurement": "glycan array binding signal (z-score)", "setting": "GalNAc(b1-3)Gal", "value": -0.175},
      {"measurement": "glycan array binding signal (z-score)", "setting": "[9]", "value": -0.578},
      {"measurement": "glycan array binding signal (z-score)", "setting": "[10]", "value": -0.375},
      {"measurement": "glycan array binding signal (z-score)", "setting": "[11]", "value": -0.181},
      {"measurement": "glycan array binding signal (z-score)", "setting": "GalNAc(b1-3)GalNAc", "value": -0.965},
      {"measurement": "glycan array binding signal (z-score)", "setting": "GalNAc(b1-3)GlcNAc", "value": -0.485},
      {"measurement": "glycan array binding signal (z-score)", "setting": "GalNAc(b1-4)Gal(b1-4)Glc", "value": 1.77},
      {"measurement": "glycan array binding signal (z-score)", "setting": "GalNAc(b1-4)GlcNAc", "value": -0.879},
      {"measurement": "glycan array binding signal (z-score)", "setting": "[12]", "value": -0.949}
    ]}
  ]
}
